Results are given in words; binding and its absence hold for the method and conditions named. Binding seen in cells or lysates may run through a third protein. Some results given as binding are weak or reduced against the parent protein; the word gives no strength. For part of these data: Tags and fused reporters may be left off the sequences shown.

By UniProt entry, the sequences of proteins in these tests, tags left out.
UniProt Q0VBB0: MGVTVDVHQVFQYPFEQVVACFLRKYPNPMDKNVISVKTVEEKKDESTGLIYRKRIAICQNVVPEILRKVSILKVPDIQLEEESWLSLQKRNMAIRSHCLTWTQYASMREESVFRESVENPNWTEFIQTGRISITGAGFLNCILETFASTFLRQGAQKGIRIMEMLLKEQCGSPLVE
UniProt Q9D8Z2: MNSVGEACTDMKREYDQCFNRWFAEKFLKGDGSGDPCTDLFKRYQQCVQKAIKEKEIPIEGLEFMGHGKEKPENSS

Experiment [1] has as its target Prelid2 (proteins of relevant evolutionary and lymphoid interest (PRELI) domain 2) (mouse) (UniProt Q0VBB0). As to the kind of experiment: co-IP; Triap1 with Prelid2 (Fig. S4b); cells, bait and antibodies not stated in the text shown.
Experiment [2] has as its target T1, Flag-FBXL6 (F-box and leucine-rich repeat 6) (human) (UniProt Q8N531).
T1 sequence: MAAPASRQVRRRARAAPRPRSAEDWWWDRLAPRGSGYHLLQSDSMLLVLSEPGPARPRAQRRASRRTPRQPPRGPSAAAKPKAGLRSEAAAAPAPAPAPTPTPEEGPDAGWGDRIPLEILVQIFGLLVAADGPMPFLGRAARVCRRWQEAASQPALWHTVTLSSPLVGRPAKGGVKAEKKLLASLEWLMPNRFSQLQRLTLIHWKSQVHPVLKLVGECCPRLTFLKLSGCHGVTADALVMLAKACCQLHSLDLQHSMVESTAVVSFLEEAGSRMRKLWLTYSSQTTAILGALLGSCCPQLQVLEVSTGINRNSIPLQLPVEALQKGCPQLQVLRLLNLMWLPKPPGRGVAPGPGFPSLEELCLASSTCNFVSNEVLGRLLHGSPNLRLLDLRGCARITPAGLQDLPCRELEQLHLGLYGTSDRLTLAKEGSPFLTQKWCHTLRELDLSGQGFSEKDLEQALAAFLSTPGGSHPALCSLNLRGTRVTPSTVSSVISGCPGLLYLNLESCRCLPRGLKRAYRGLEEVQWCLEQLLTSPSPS
Kind of experiment: co-IP; Huh7 and Hep3B cells transfected with Flag-FBXL6 for 48 h and lysed; indicated antibodies and protein A/G PLUS-agarose added; endogenous KRAS detected.

Experiment [3] has as its target T1, Flag-FBXL6 (F-box and leucine-rich repeat 6) (human). As to the kind of experiment: co-IP; HA-KRAS and Flag-FBXL6 both ectopically expressed; lysate precipitated with anti-Flag antibody and protein A/G agarose, Western blot; cells not given. (Immunoblotting shows a protein as a band on a membrane.)

On to Triap1 (from UniProt Q9D8Z2 1-76), for which the binding result in experiment [1] is reported as “binds”.

Regarding “endogenous KRAS (from UniProt P01116 1-189)”, the binding result in experiment [2] was “binds”.

On to “HA-KRAS (Kirsten rat sarcoma) (from UniProt P01116 1-189)”, for which the binding entry in experiment [3] is “binds”.

The record behind these values is publication PMC10731709.
